# Most values lie at the floor of the assay. Slopes are relative: functional sequences can read slightly below zero.
# System: Saccharomyces cerevisiae PS128 hsf1 delta, HSF1(1-493) fusion
# Assay: growth estimate (transactivation domain function in HSF1 fusion, heat-shock survival) (a.u. (slope of normalised read count over time)); higher = stronger growth at 37°C, i.e. more transactivation activity
# Details: library: random library
# Protocol: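 Random 60-nt DNA library encoding peptides of up to 20 aa, fused to the C-terminus of yeast HSF1 residues 1-493 (C-terminal TAD deleted) and expressed from the native HSF1 promoter on a CEN plasmid in hsf1-deleted S. cerevisiae PS128. Cells were selected at 37°C on -trp 5-FOA plates for 0, 2, 4, 6 and 8 days and amplicons were sequenced. Growth estimate is the slope of a robust linear fit of total-sum-normalised read counts (normalised to the first time point) over time, using at least 2 replicates. Sequences are classed functional (TAD activity) above a threshold of -0.13, set from stop-codon control sequences.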
row,Substance,growth estimate
1,AAAGAQCLPQHSDVQRVERV,< -0.25
2,AAAN,< -0.25
3,AACEL,< -0.25
4,AACHENSNLNELLHRERWRA,< -0.25
5,AADGVQRYNVEGLHYLRSQN,< -0.25
6,AAEISCLENACDLVYIDHCG,< -0.25
7,AAG,< -0.25
8,AAGDRHGTASFSFCPK,< -0.25
9,AAGNI,< -0.25
10,AAGRRRKRMTWTRTQLDGGI,< -0.25
11,AAGVIR,< -0.25
12,AAH,< -0.25
13,AAHASEILAARVGEYNGEAA,< -0.25
14,AAHLGGNSRSPVWT,< -0.25
15,AAIETSL,< -0.25
16,AAIGRFRAGVHYAARTATGS,< -0.25
17,AAILRWGLLDDDNPAPRPIS,< -0.25
18,AAIYRRRSSLRTDAFRLDLA,< -0.25
19,AAKVRSRAPLIGRGPLHTRF,-0.245
20,AALCKLARANFFG,< -0.25
21,AALMENFETLTKGAGCVRRE,< -0.25
22,AALSTI,< -0.25
23,AAMCLQSAFRDQYAVESCLS,< -0.25
24,AANSFPIHVRSRHKAVGAIA,< -0.25
25,AAP,< -0.25

row,Substance,growth estimate
1,AAQLLCCGTRSVGHRRPPHS,< -0.25
2,AARSIQARGSFDRARF,< -0.25
3,AAS,< -0.25
4,AASGNGIRSVVLTAVPVLPS,< -0.25
5,AASGTRVSYGGVASPN,< -0.25
6,AASKYEIGWHRVNALELCSS,< -0.25
7,AASSTLNVADVYSGRYARNV,< -0.25
8,AATLVLANFYSTMSR,< -0.25
9,AATTLRWGLTQRSRRLGTAG,< -0.25
10,AAVLLAYGRTCATVLCFFEF,< -0.25
11,ACAVVSS,< -0.25
12,ACDNYRGITPRCVSTASRAA,< -0.25
13,ACFEGSGKCPCHGALGLHAA,< -0.25
14,ACFLFI,< -0.25
15,ACFVKVGEDEPNAAA,< -0.25
16,ACHVT,< -0.25
17,ACMDQGLVFA,< -0.25
18,ACMGGLIRLGGLESRIRIRN,-0.221
19,ACNSTPEGVNR,< -0.25
20,ACNVKAGGAYLHTDFYISSG,< -0.25
21,ACPGTLAVPQPGFKG,< -0.25
22,ACPRPAEELSCVLKGTYRQ,< -0.25
23,ACVPCVRATRGIGALYFSPD,< -0.25
24,ADADLLMC,< -0.25
25,ADAG,< -0.25

row,Substance,growth estimate
1,ADASLVQGL,< -0.25
2,ADCAWAYGKNFNVSPKVLTG,< -0.25
3,ADDLHMLNGSIPPGGGRGVL,< -0.25
4,ADGDTFYVETSVSLPVHNRT,< -0.25
5,ADGEQYISDVSITIAACYRC,< -0.25
6,ADGTRNSIAGALSAIP,< -0.25
7,ADHI,< -0.25
8,ADKFNFPGAYGEDMGSQHKA,< -0.25
9,ADKP,< -0.25
10,ADLGILSGQSSDTWTVSIDT,< -0.25
11,ADLSGRTYPLTVFS,< -0.25
12,ADPSP,< -0.25
13,ADPVRFHR,< -0.25
14,ADQ,< -0.25
15,ADQVG,< -0.25
16,ADRTRTHK,< -0.25
17,ADRTVN,< -0.25
18,ADS,< -0.25
19,ADSRGSIGVSLPSSEVNGMG,< -0.25
20,ADSS,< -0.25
21,ADTGYSSYTMRSIQVARSPP,< -0.25
22,ADVLGIIPIKMRRNRGRPCL,< -0.25
23,ADVLPSRHSSSCPFTV,< -0.25
24,ADVSFP,< -0.25
25,ADVTLPHYLQ,< -0.25

row,Substance,growth estimate
1,AEAELDLGYIPNTLGDTPQD,< -0.25
2,AEERQTMKICLRKRGQAVGA,< -0.25
3,AEFRNA,< -0.25
4,AEG,< -0.25
5,AEGWTIAL,< -0.25
6,AELNT,< -0.25
7,AELRDPS,< -0.25
8,AENSTEQNVARPRITKVFFR,< -0.25
9,AEPLGVATRSLGRNMDRAER,< -0.25
10,AEPPALGSHLAKEYVAVGSP,< -0.25
11,AEQVRVRRLLLYCRLLVWSS,< -0.25
12,AERGVLR,< -0.25
13,AERWEL,< -0.25
14,AESA,< -0.25
15,AESNWLRKSPLVRRMGGISP,< -0.25
16,AESREPRCDCPTTRSRYGA,< -0.25
17,AETTADGDSQIPFLDLWFIP,< -0.25
18,AEVA,< -0.25
19,AEVDRSR,< -0.25
20,AEVDVAIMERLMARVIVPM,< -0.25
21,AEVQRPTCGPRRHNERWCCA,< -0.25
22,AEYLTSLRRTGQLNNRRTYA,< -0.25
23,AFAVLSTRFQAMTKPETVCA,< -0.25
24,AFHAT,< -0.25
25,AFLC,< -0.25

# Taken from the entries so far for reference:
row,Substance,growth estimate
16,AAIGRFRAGVHYAARTATGS,< -0.25
17,AAILRWGLLDDDNPAPRPIS,< -0.25
18,AAIYRRRSSLRTDAFRLDLA,< -0.25
19,AAKVRSRAPLIGRGPLHTRF,-0.245
20,AALCKLARANFFG,< -0.25
21,AALMENFETLTKGAGCVRRE,< -0.25

# (further entries)

row,Substance,growth estimate
1,AFMCYLKSLGFPLR,< -0.25
2,AFPAFRMANMVFRFQINIPD,< -0.25
3,AFSRGGRCSGIHQPVLLRSM,< -0.25
4,AFTLSGNRGESWQFQWCIDT,< -0.25
5,AFTVWRHTSLSHTRAVTNAG,< -0.25
6,AFVPRNSFFERKTLNHLDSP,-0.241
7,AFY,< -0.25
8,AGANSHSVSYSRQPGLTSR,< -0.25
9,AGCKSRRLP,< -0.25
10,AGCRMA,< -0.25
11,AGCTFRGT,< -0.25
12,AGCVTLGRGKGTQACRNTPC,< -0.25
13,AGDIVTKDGRKK,< -0.25
14,AGDTFG,< -0.25
15,AGEEAE,< -0.25
16,AGEIKCSVF,< -0.25
17,AGFLKQPVPASALVSHEHRL,< -0.25
18,AGGCSAIP,< -0.25
19,AGGGEPASFREAGDAWECQI,< -0.25
20,AGGLPGRCRKKVR,< -0.25
21,AGHHPWGATTRCIVQSLRHG,< -0.25
22,AGI,< -0.25
23,AGIHDTWTYSRPRVLYQSPR,< -0.25
24,AGIQTSSRSVRPFLLGASFL,< -0.25
25,AGIRTHWEIKFR,< -0.25

row,Substance,growth estimate
1,AGIT,< -0.25
2,AGKGFG,< -0.25
3,AGLDPLYRRLRISRCHSMGV,< -0.25
4,AGLFSSNTRVLDVVCGYGGC,< -0.25
5,AGLLRNSPSHFVASVLGLCP,< -0.25
6,AGLTLPGLDCTVQRSDRDQV,< -0.25
7,AGMFAASAFNSGHFFVGQGL,< -0.25
8,AGMKKE,< -0.25
9,AGPFDHHSGVSAGLLGSVRR,< -0.25
10,AGQDLTRG,< -0.25
11,AGRHCYIVSCYSRVRFRRLQ,< -0.25
12,AGRSAHKTVILEKDLARVRL,-0.145
13,AGRSAVTTPQYIPVMSARGP,< -0.253
14,AGRVAPFRGTRH,< -0.25
15,AGSADGSSLK,< -0.25
16,AGSDKARFYQ,< -0.25
17,AGSKSAESEACGI,< -0.25
18,AGSMGCIYRSSLSCCHAMQR,< -0.25
19,AGSPGIIVQNGLAVRSLPWA,< -0.25
20,AGSQEKDALTLREPAPHPAG,< -0.25
21,AGSTRGRDVMVLYW,< -0.25
22,AGSWNLVMLCSGANPNYFLG,< -0.25
23,AGTRFACGDGLSDGRPLTGC,< -0.25
24,AGVAYQRLNTGLPRPIRHRP,< -0.25
25,AGVFLSVAICARSGVCDLA,< -0.25

# Quoted at random: 2 records from the list.
row,Substance,growth estimate
4,AGLFSSNTRVLDVVCGYGGC,< -0.25
19,AGSPGIIVQNGLAVRSLPWA,< -0.25

# The list continues.

row,Substance,growth estimate
1,AGY,< -0.25
2,AHC,< -0.25
3,AHCLSVGHSSETYRGDQTGG,< -0.25
4,AHCRTDVRAHLVCFTRSK,< -0.25
5,AHGD,< -0.25
6,AHGGIGTPPEVGS,< -0.25
7,AHLTYWVERRQSGCYGKSLC,< -0.25
8,AHRQDSERQNLSTTKRGRPF,< -0.25
9,AHSIHESNAASNALASLLVY,< -0.25
10,AHSQAQRGRWSRTTNYKVSR,< -0.25
11,AHSSARINGPSYDASAFYDE,< -0.25
12,AICDETLITDSGHIEGATWS,< -0.25
13,AICQGDRNPLAPSFDWRSAR,< -0.25
14,AICQLEISRPSVRSSARIGW,< -0.25
15,AIDV,< -0.25
16,AIEMSTLPSQYRRPKPP,< -0.25
17,AIEPLAPAAVASNQAIACHT,< -0.25
18,AIGCGGPVYPVVMGRH,< -0.25
19,AIGGLRPPISIQTGLRDSLL,< -0.25
20,AIGRHIL,< -0.25
21,AIGSEGTH,< -0.25
22,AIGTDRLCALAREVWLRAIE,< -0.25
23,AIKVSRYPWI,< -0.25
24,AILKLVTSRHGGPVPPLTVQ,< -0.25
25,AINA,< -0.25

# Single values from the entries so far.
# growth estimate with AIEPLAPAAVASNQAIACHT reads < -0.25
# growth estimate with AHSIHESNAASNALASLLVY reads < -0.25

# The results go on.

row,Substance,growth estimate
1,AINFARKGLRPVYD,< -0.25
2,AINGNCLIPCCNDFYPRLRN,-0.25
3,AIPMDSTTESLT,< -0.25
4,AIRQAKLWFPTATNATCLSA,< -0.25
5,AISC,< -0.25
6,AITGPSGQGYRRNRKSHNAV,< -0.25
7,AIVAPAAQVKYTP,< -0.25
8,AKCHQRKSHSAGALS,< -0.25
9,AKFDCLMVIEHFGMYIDL,< -0.25
10,AKFVATTVVDTLYLTLSWRS,< -0.25
11,AKGDAEYCGYSVWGHFSGVL,-0.0794
12,AKGGEPL,< -0.25
13,AKGGIMKSKSISRVLKRDLC,< -0.25
14,AKGLGDIYSCSAYESLRRCL,< -0.25
15,AKGSGSLTYASVENF,< -0.25
16,AKGTGRAVDMEIGLGSHCLV,< -0.25
17,AKHWRLGISHAVCPAILLLV,< -0.25
18,AKI,< -0.25

# Source: the supplement of paper PMC5949888
